Assay results taken from PMC12167954.
No constants are given. Whether binding was seen depends on the method and setting. Some binding calls cover weakened binding; strength is not graded here.

B1: poly-L-lysine-50 (K50) (peptide)
chain: KKKKKKKKKKKKKKKKKKKKKKKKKKKKKKKKKKKKKKKKKKKKKKKKKK
B2: poly-L-arginine-50 (R50) (peptide)
chain: RRRRRRRRRRRRRRRRRRRRRRRRRRRRRRRRRRRRRRRRRRRRRRRRRR

Target: T1, prothymosin α (ProTα) (UniProt P06454)
T1 sequence: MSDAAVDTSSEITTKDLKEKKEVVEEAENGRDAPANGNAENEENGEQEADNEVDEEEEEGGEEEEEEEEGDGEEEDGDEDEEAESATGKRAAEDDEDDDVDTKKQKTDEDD
Test: associative phase separation (complex coacervation; brightfield microscopy and coexistence measurements of dense and dilute phases); ProTα mixed with a polycation at charge balance in TEK buffer; images at 90 mM KCl (ionic strength 98 mM); phase diagrams as a function of salt concentration; both purified

binding	Binder
binds	B1
binds	B2
